From patent publication US6191103A, “Methods for enhancing thrombolysis in a mammal” (priority 1997, dated 2001)
Not every detail of the peptide structures is certain; ends, links or a residue may be inferred. Where a SMILES comes first, the peptide text is derived from it. Where no end group is shown, it is not given here.

What was measured:
[1] = test system: red blood cells; assay: cytoadhesion assays; type: cell-based
[2] = test system: sickle red cells; assay: adherence of sickle red cells to cultured human umbilical vein endothelial cells (HUVEC); type: cell-based; details: for inhibition of abnormal sickle cell binding: L-isomeric form, 25 μg/ml, absence of plasma
[3] = test system: human SS RBC; assay: direct visualization (intravital microscopy) assay of human sickle cell (SS) adhesiveness in mouse cremaster microcirculation; type: in vivo, C57B6 mice; details: infusion of 75 μg in 0.1 cc PBS, mouse cremaster venules
[4] = enhancement of thrombolysis in vivo (bleeding at suture sites); parameters: species or system Mice; details: 75 μg in 0.1 cc PBS; for time to bleeding at suture sites after infusion: all treated animals
[5] = test system: normal cells previously loaded with 10 μM calcium; assay: cytoadherence of normal red cells loaded with 10 μM calcium to HUVEC; type: cell-based, human
[6] = test system: endothelial cells; assay: binding of peptide to endothelial cells

Which results are given for `CC(C)C[C@@H](NC(=O)[C@H]1CCCN1C(=O)[C@@H](Cc1c[nH]cn1)NC(=O)CN)C(=O)N[C@H](CCC(N)=O)C(=O)N[C@H](CCCCN)C(=O)N[C@@H](C(=O)N[C@H](Cc1ccc(O)cc1)C(=O)O)[C@H](C)O` [3d(D), GHPLQKTY]?
activity of L-amino acid and D-amino acid forms compared [1]: equal activity; inhibition of sickle cell binding ([2]; D-isomer, concentration not given): 100±11%; effect on SS adhesiveness [3]: also inhibited SS adhesiveness; duration of bleeding [4]: approximately one-half; time to bleeding at suture sites after infusion [4]: ≤ 10 min

With `CC(C)[C@H](NC(=O)[C@@H](N)Cc1ccc(O)cc1)C(=O)N[C@@H](CCCCN)C(=O)O` [7d, YVK] (H-Tyr-Val-Lys-OH) as the compound, how does the “IC50 relative to that of lysine (K) alone” value ([1]; ratio to lysine) read?
Its value is 1/1000.

Which “activity in cytoadhesion assays” value [1] does the source give for `CC(C)C[C@H](NC(=O)[C@@H]1CCCN1C(=O)[C@H](Cc1c[nH]cn1)NC(=O)CN)C(=O)N[C@@H](CCC(N)=O)C(=O)N[C@@H](CCCCN)C(=O)N[C@H](C(=O)N[C@@H](Cc1ccc(O)cc1)C(=O)O)[C@@H](C)O` [peptide 3d, GHPLQKTY] here?
The value was “as active as YTKQLPHG”.

What about the “activity of L-amino acid and D-amino acid forms compared” value [1] of the same compound?
Its value is “equal activity”.

And the “inhibition of abnormal sickle cell binding” value [2]?
The value was 102±12%.

What about the “inhibitory activity on sickle cell binding in the presence of plasma” value [2] of the same compound?
Its value is “also observed in the presence of plasma”.

And the “blocking the cytoadherence of normal cells loaded with calcium” value (“blocking the cytoadherence … with calcium” for short) [5]?
Its value is “effective in blocking”.

What about the “binding to endothelial cells” value [6] of the same compound?
Its value is “binds to endothelial cells”.

And the “effect on SS adhesiveness” value [3]?
The value was “inhibited SS adhesiveness”.

What about the duration of bleeding [4] of the same compound?
The duration of bleeding was “approximately one-half”.

And the “time to bleeding at suture sites after infusion” value [4]?
Its value is ≤ 10 min.

For FSFCETNGLE [2f, FSFCETNGLE], which “inhibition of abnormal sickle cell binding” value [2] is on record?
Its value is 95±13%.

And the “inhibitory activity on sickle cell binding in the presence of plasma” value [2]?
The value was “also observed in the presence of plasma”.

And the “blocking the cytoadherence … with calcium” value [5]?
Its value is “effective in blocking”.

And the “effect on SS adhesiveness” value [3]?
Its value is “inhibited SS adhesiveness”.

With HPLGQKTY [HPLGQKTY] as the compound, how does the “activity in cytoadhesion assays” value [1] read?
The value was “retains its activity”.

Which “activity in cytoadhesion assays” value [1] does the source give for HPLQKTY [HPLQKTY] here?
Its value is “active”.

Which “activity in cytoadhesion assays” value [1] does the source give for HPQKTY [HPQKTY] here?
The value was “inactive”.

With “KPPKYHP [7e, KPPKYHP, reference compound]” as the compound, how does the “inhibition of sickle cell binding” value ([2]; control peptides at 42 μg/ml) read?
Its value is 12±21%.

And the “blocking the cytoadherence … with calcium” value [5]?
The value was “not”.

Which “inhibition of sickle cell binding” value ([2]; control peptides at 42 μg/ml) does the source give for “LYPQHKT [peptide 3ds, LYPQHKT, reference compound]” here?
The value was 15±21%.

And the “blocking the cytoadherence … with calcium” value [5]?
Its value is “not”.

And the “effect on SS adhesiveness” value [3]?
Its value is “no effect on SS adhesiveness”.

Which “activity in cytoadhesion assays” value [1] does the source give for YTKQLPHG [3e, YTKQLPHG] here?
The value was “as active as”.

For YVKRVK [7c, YVKRVK], which “activity in cytoadhesion assays” value [1] is on record?
The value was “active”.
